Laboratory results taken from PMC9778704.
These are yes or no findings as the source states them, for the method shown. Binding seen in cells or lysates may run through a third protein. Some binding calls cover weakened binding; strength is not graded here. Tags and fused reporters may be left off the sequences shown.

By UniProt entry, the sequences of proteins in these tests, tags left out.
UniProt Q14764: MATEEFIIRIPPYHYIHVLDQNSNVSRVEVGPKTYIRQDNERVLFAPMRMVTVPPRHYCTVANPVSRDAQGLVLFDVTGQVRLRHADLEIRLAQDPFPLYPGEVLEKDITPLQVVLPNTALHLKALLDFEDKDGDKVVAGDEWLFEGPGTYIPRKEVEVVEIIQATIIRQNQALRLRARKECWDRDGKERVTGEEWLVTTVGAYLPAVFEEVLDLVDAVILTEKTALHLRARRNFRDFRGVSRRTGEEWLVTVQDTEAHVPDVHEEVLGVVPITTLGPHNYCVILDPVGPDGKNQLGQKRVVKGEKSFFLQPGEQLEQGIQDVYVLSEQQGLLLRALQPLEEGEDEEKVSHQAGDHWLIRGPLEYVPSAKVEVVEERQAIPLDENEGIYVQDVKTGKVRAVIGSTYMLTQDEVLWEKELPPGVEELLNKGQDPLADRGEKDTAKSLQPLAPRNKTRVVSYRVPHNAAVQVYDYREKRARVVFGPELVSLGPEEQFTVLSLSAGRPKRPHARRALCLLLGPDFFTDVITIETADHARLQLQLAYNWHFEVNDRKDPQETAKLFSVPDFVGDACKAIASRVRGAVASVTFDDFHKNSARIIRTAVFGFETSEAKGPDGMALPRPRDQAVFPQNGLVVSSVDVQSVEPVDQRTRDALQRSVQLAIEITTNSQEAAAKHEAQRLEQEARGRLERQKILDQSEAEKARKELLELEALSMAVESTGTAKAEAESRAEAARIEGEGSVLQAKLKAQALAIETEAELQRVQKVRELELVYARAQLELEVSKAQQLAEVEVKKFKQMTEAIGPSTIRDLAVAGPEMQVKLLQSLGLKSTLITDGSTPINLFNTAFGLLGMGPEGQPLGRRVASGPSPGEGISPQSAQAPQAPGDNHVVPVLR

Biological target: MVP-H6 (human major vault protein with a C-terminal histidine tag) (human) (UniProt Q14764)
Test: pull-down; soluble fractions of E. coli lysates with MVP-H6 and with GFP-INT mixed 60 min on ice; MVP-H6 captured by its His tag on TALON cobalt IMAC resin, washed and eluted with imidazole in PBS; fractions read by SDS-PAGE and Western blot (anti-His, anti-GFP); control: GFP-INT with PBS only

binding: binds
B1: GFP-INT (eGFP fused to the INT domain of poly-(ADP-ribose) polymerase 4) (domain or fragment, UniProt Q9UKK3 1562-1724)
chain: VCIQHWQDAVPWTELLSLQTEDGFWKLTPELGLILNLNTNGLHSFLKQKGIQSLGVKGRECLLDLIATMLVLQFIRTRLEKEGIVFKSLMKMDDASISRNIPWAFEAIKQASEWVRRTEGQYPSICPRLELGNDWDSATKQLLGLQPISTVSPLHRVLHYSQG
